Reference: US20040001822A1, “Y1-isolated molecules comprising epitopes containing sulfated moieties, antibodies to such epitopes, and uses thereof” (priority 2000, published 2004)
Substitutions are numbered along the chain they refer to. These are yes or no findings as the source states them, for the method shown. Some binding calls cover weakened binding; strength is not graded here. Blank lines part the entries; values can stand above or below the binder they belong to.

Sequences of proteins named here, by UniProt entry; tags and fusion partners are left off. Residues count along the entry.
UniProt P07359, residues 17-531: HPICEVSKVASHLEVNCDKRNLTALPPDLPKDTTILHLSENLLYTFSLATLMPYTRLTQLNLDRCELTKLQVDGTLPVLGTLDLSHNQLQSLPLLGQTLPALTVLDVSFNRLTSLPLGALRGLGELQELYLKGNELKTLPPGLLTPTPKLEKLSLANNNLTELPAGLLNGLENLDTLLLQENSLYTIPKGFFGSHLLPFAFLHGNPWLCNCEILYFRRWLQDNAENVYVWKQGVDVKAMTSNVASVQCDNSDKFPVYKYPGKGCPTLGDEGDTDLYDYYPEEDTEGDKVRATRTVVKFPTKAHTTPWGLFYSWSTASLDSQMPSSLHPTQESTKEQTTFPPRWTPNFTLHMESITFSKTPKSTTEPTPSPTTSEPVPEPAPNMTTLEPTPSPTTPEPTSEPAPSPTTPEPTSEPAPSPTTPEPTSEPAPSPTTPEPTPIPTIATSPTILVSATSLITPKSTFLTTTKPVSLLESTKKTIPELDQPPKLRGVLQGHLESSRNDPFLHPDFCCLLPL

Tests used:
[1] = biological target: glycocalicin (human platelet derived) (human) (UniProt P07359); assay: Western blot
[2] = biological target: glycocalicin (human platelet derived) (human) (UniProt P07359); assay: Western blot of platelet proteins
[3] = biological target: T1, complement compound 4 (CC4) (human) (UniProt P0C0L4); assay: Western blot of human plasma proteins
T1 sequence (looked up): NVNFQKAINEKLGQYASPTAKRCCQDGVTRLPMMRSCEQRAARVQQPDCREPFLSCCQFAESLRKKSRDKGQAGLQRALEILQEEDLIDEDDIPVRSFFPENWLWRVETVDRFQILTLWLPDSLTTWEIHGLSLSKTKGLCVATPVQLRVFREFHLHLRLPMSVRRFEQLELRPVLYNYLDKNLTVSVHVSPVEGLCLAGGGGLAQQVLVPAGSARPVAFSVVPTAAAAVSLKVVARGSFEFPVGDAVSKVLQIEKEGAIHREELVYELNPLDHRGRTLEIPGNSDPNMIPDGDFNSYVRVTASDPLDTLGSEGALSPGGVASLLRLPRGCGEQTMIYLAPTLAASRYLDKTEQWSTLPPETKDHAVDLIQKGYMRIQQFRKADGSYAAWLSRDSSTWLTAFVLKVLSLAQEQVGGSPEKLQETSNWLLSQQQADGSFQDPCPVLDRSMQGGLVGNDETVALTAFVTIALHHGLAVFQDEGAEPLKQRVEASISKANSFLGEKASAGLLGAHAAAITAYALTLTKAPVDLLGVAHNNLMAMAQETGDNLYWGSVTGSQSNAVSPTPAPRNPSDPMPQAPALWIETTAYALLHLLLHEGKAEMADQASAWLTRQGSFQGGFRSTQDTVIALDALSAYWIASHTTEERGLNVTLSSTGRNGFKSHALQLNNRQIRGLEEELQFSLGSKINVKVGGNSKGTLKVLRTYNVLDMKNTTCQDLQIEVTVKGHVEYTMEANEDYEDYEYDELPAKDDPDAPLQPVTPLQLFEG

[4] = biological target: T1, complement compound 4 (CC4) (human); assay: immunoblot of human plasma, purification and peptide mapping
[5] = biological target: T1, complement compound 4 (CC4) (human); assay: summary of the experiments

binding [1]: binds
binding [2]: binds
B1: Y17 scFv (scFv)
scFv: EVQLVESGGGVVRPGGSLRLSCAASGFTFDDYGMSWVRQAPGKGLEWVSGINWNGGSTGYADSVKGRFTISRDNAKNSLYLQMNSLRAEDTAVYYCARLTHPYFWGQGTLVTVSRGGGGSGGGGSGGGGSSELTQDPAVSVALGQTVRITCQGDSLRSYYASWYQQKPGQAPVLVIYGKNNRPSGIPDRFSGSSSGNTASLTITGAQAEDEADYYCNSRDSSGNHVVFGGGTKLTVLGAAAEQKLISEEDLNGAA

binding [3]: binds
binding [4]: binds
binding [5]: binds
B2: Y1 scFv (scFv)
scFv: B1 scFv with L99M, T100R, H101A, Y103V, F104I
